Measured values as given in patent US20260028352A1, “MACROCYCLIC IMIDAZO [1,2-B] PYRIDAZINE DERIVATIVE, PREPARATION METHOD THEREFOR, AND USE THEREOF” (SUZHOU LANGRUI BIOPHARMACEUTICAL CO., LTD., priority 2022, published 2026).
At least one structure is not confirmed: it was looked up by name or label, or the drawing left a doubt. Some entries repeat one wording, which the source may state once for all of them.

Assays:
Format in all cases: cell-based
Details in all cases: comparison in words
[1] = system: Ba/F3-TPM3-NTRK1-G667C cells; assay: Growth inhibition of Ba/F3-TPM3-NTRK1-G667C cells (Cell Titer-Glo)
Protocol: (§1) Then the solutions were subjected to a gradient dilution with DMSO: a clean, sterile V-bottom 96-well microplate was placed in the biological safety cabinet. First, 4 μL of DMSO was added to well B2 and 10 μL of DMSO was added to wells B3-B11 respectively; Next, 6 μL of the 10 mM solution was added to well B2. The microplate was pipetted up and down 10 times for mixing. […] Mixing was performed by pipetting up and down 10 times. The solution was diluted in order until well B10. only DMSO was added to well B11 (no compound).
(§2) 6× Compound Solution Preparation (6-fold dilution, × represents dilution factor): (Initial final concentration: 10 μM), a clean, sterile V-bottom 96-well microplate was placed in the biological safety cabinet. 99 μL of cell culture medium was added to each well from B2 to G11. By using a 12-channel pipettor, 1 μL of the compound solution prepared in the previous step was added into the corresponding wells. The solutions were pipetted up and down 10 times to mix the solutions. The highest concentration of compound in this step was 60 μM.
(§3) Treatment of Cells: the above-prepared cell culture plate was taken out of the incubator. 20 μL of compound solution from each well was added to the corresponding cell culture wells. The lowest pipetting speed was used and touching the bottom of the plate was avoided. The culture plate was gently shaked to mix the compound solution, then the plate was returned to the incubator for further culture for 72 hours.
(§4) The highest treatment concentration of the compound was 10 μM. After 72 hours of treatment, the Cell Titer-Glo (CTG) assay was performed. First, the cell culture plate was removed from the CO2 incubator and allowed to stand at room temperature for 30 minutes to ensure uniform temperature of the plate. The pre-prepared Cell Titer-Glo reagent (following the manufacturer's instructions) was taken and allowed to stand at room temperature to thaw. 60 μL of Cell Titer-Glo reagent was added to each well containing cells. The cells were incubated on a horizontal shaker in a dark place at 225 rpm for 1 hour at room temperature. Then, a Tecan Spark microplate reader was used to read the plate using chemiluminescence according to the manufacturer's instructions.

[2] = system: Ba/F3-TPM3-NTRK1-WT cells; assay: Growth inhibition of Ba/F3-TPM3-NTRK1-WT cells (Cell Titer-Glo)
Protocol: as §1, §2, §3, §4

[3] = system: Ba/F3-TPM3-NTRK1-G595R cells; assay: Growth inhibition of Ba/F3-TPM3-NTRK1-G595R cells (Cell Titer-Glo)
Protocol: as §1, §2, §3, §4

Row | SMILES | inhibitory ability compared with TPX-0005 [1] | inhibitory ability compared with Loxo-195 and TPX-0005 [2] | inhibitory ability compared with Loxo-195 and TPX-0005 [3]
1 | C[C@@H]1Cc2ccnc(c2)-c2cnc3ccc(nn23)N2C[C@@H](F)C[C@@H]2c2cc(F)ccc2O1 [Example I-39, (3^2R,3^4S,6R,E)-3^4,4^5-difluoro-6-methyl-5-oxa-2(3,6)-imidazo[1,2-b]pyridazina-1(2,4)-pyridina-3(1,2)-pyrrolidina-4(1,2)-benzenacycloheptaphane] | stronger than that of compound TPX-0005 | stronger than that of compounds Loxo-195 and TPX-0005 | stronger inhibitory abilities than compounds Loxo-195 and TPX-0005
2 | C[C@@H]1Cc2ccnc(c2)-c2cnc3ccc(nn23)N2C[C@@H](F)C[C@@H]2c2cc(F)cnc2O1 [Example I-40, (3^2R,3^4S,6R,E)-3^4,4^5-difluoro-6-methyl-5-oxa-2(3,6)-imidazo[1,2-b]pyridazina-1(2,4),4(3,2)-dipyridina-3(1,2)-pyrrolidinacycloheptaphane] | stronger than that of compound TPX-0005 | stronger than that of compounds Loxo-195 and TPX-0005 | stronger inhibitory abilities than compounds Loxo-195 and TPX-0005
3 | Fc1ccc2c(c1)[C@H]1C[C@H](F)CN1c1ccc3ncc(n3n1)-c1cc(ccn1)CO2 [Example I-50, (14bR,16S,E)-13,16-difluoro-14b,15,16,17-tetrahydro-9H-1,19-etheno-4,8-(metheno)benzo[b]imidazo[1,5-h]pyrrolo[2,1-d][1]oxa[5,7,8,11]tetraazacyclopentadecine] | stronger than that of compound TPX-0005 | stronger than that of compounds Loxo-195 and TPX-0005 | stronger inhibitory abilities than compounds Loxo-195 and TPX-0005
4 | Fc1cnc2c(c1)[C@H]1C[C@H](F)CN1c1ccc3ncc(n3n1)-c1cc(ccn1)CO2 [Example I-52, (14bR,16S,E)-13,16-difluoro-14b,15,16,17-tetrahydro-9H-1,19-etheno-4,8-(metheno)imidazo[1,5-h]pyrido[2,3-b]pyrrolo[2,1-d][1]oxa[5,7,8,11]tetraazacyclopentadecine] | stronger than that of compound TPX-0005 | stronger than that of compounds Loxo-195 and TPX-0005 | stronger inhibitory abilities than compounds Loxo-195 and TPX-0005
5 | Fc1ccc2c(c1)[C@H]1C[C@H](F)CN1c1ccc3ncc(n3n1)-c1cc(ccn1)CCO2 [Example I-54, (3^2R,3^4S,E)-3^4,4^5-difluoro-5-oxa-2(3,6)-imidazo[1,2-b]pyridazina-1(2,4)-pyridina-3(1,2)-pyrrolidina-4(1,2)-benzenacycloheptaphane] | stronger than that of compound TPX-0005 | stronger than that of compounds Loxo-195 and TPX-0005 | stronger inhibitory abilities than compounds Loxo-195 and TPX-0005
6 | Fc1cnc2c(c1)[C@H]1C[C@H](F)CN1c1ccc3ncc(n3n1)-c1cc(ccn1)CCO2 [Example I-56, (3^2R,3^4S,E)-3^4,4^5-difluoro-5-oxa-2(3,6)-imidazo[1,2-b]pyridazina-1(2,4), 4(3,2)-dipyridina-3(1,2)-pyrrolidinacycloheptaphane] | stronger than that of compound TPX-0005 | stronger than that of compounds Loxo-195 and TPX-0005 | stronger inhibitory abilities than compounds Loxo-195 and TPX-0005
7 | Fc1ccc2c(c1)[C@H]1C[C@H](F)CN1c1ccc3ncc(n3n1)-c1cc(ncn1)CO2 [Example I-58, (14bR,16S,E)-13,16-difluoro-14b,15,16,17-tetrahydro-9H-1,19-etheno-4,8-(metheno)benzo[n]imidazo[5,1-h]pyrrolo[1,2-l][1]oxa[4,6,9,10,12]pentaazacyclopentadecine] | stronger than that of compound TPX-0005 | stronger than that of compounds Loxo-195 and TPX-0005 | stronger inhibitory abilities than compounds Loxo-195 and TPX-0005
8 | Fc1cnc2c(c1)[C@H]1C[C@H](F)CN1c1ccc3ncc(n3n1)-c1cc(ncn1)CO2 [Example I-60, (14bR,16S,E)-13,16-difluoro-14b,15,16,17-tetrahydro-9H-1,19-etheno-4,8-(metheno)imidazo[5,1-h]pyrido[3,2-n]pyrrolo[1,2-l][1]oxa[4,6,9,10,12]pentaazacyclopentadecine] | stronger than that of compound TPX-0005 | stronger than that of compounds Loxo-195 and TPX-0005 | stronger inhibitory abilities than compounds Loxo-195 and TPX-0005
9 | Fc1ccc2c(c1)[C@H]1C[C@H](F)CN1c1ccc3ncc(n3n1)-c1nccc(n1)CO2 [Example I-62, (14bR,16S,E)-13,16-difluoro-14b,15,16,17-tetrahydro-9H-4,8-(azeno)-1,19-ethenobenzo[b]imidazo[1,5-h]pyrrolo[2,1-d][1]oxa[5,7,8,11]tetraazacyclopentadecine] | stronger than that of compound TPX-0005 | stronger than that of compounds Loxo-195 and TPX-0005 | stronger inhibitory abilities than compounds Loxo-195 and TPX-0005
10 | Fc1cnc2c(c1)[C@H]1C[C@H](F)CN1c1ccc3ncc(n3n1)-c1nccc(n1)CO2 [Example I-64, (14bR,16S,E)-13,16-difluoro-14b,15,16,17-tetrahydro-9H-4,8-(azeno)-1,19-ethenoimidazo[1,5-h]pyrido[2,3-b]pyrrolo[2,1-d][1]oxa[5,7,8,11]tetraazacyclopentadecine] | stronger than that of compound TPX-0005 | stronger than that of compounds Loxo-195 and TPX-0005 | stronger inhibitory abilities than compounds Loxo-195 and TPX-0005
11 | Fc1ccc2c(c1)[C@H]1C[C@H](F)CN1c1ccc3ncc(n3n1)-c1cc(cnn1)CO2 [Example I-66, (14bR,16S,E)-13,16-difluoro-14b,15,16,17-tetrahydro-9H-1,19-etheno-4,8-(metheno)benzo[n]imidazo[5,1-h]pyrrolo[1,2-l][1]oxa[5,6,9,10,12]pentaazacyclopentadecine] | stronger than that of compound TPX-0005 | stronger than that of compounds Loxo-195 and TPX-0005 | stronger inhibitory abilities than compounds Loxo-195 and TPX-0005
12 | Fc1cnc2c(c1)[C@H]1C[C@H](F)CN1c1ccc3ncc(n3n1)-c1cc(cnn1)CO2 [Example I-68, (14bR,16S,E)-13,16-difluoro-14b,15,16,17-tetrahydro-9H-1,19-etheno-4,8-(metheno)imidazo[5,1-h]pyrido[3,2-n]pyrrolo[1,2-l][1]oxa[5,6,9,10,12]pentaazacyclopentadecine] | stronger than that of compound TPX-0005 | stronger than that of compounds Loxo-195 and TPX-0005 | stronger inhibitory abilities than compounds Loxo-195 and TPX-0005
13 | Fc1ccc2c(c1)[C@H]1C[C@H](F)CN1c1ccc3ncc(n3n1)-c1cc(ncn1)CCO2 [Example I-70, (3^2R,3^4S,E)-3^4,4^5-difluoro-5-oxa-2(3,6)-imidazo[1,2-b]pyridazina-1(4,6)-pyrimidina-3(1,2)-pyrrolidina-4(1,2)-benzenacycloheptaphane] | stronger than that of compound TPX-0005 | stronger than that of compounds Loxo-195 and TPX-0005 | stronger inhibitory abilities than compounds Loxo-195 and TPX-0005
14 | Fc1cnc2c(c1)[C@H]1C[C@H](F)CN1c1ccc3ncc(n3n1)-c1cc(ncn1)CCO2 [Example I-72, (3^2R,3^4S,E)-3^4,4^5-difluoro-5-oxa-2(3,6)-imidazo[1,2-b]pyridazina-1(4,6)-pyrimidina-4(3,2)-pyridina-3(1,2)-pyrrolidinacycloheptaphane] | stronger than that of compound TPX-0005 | stronger than that of compounds Loxo-195 and TPX-0005 | stronger inhibitory abilities than compounds Loxo-195 and TPX-0005
